Source: patent publication US20220235134A1
Where a chain is given by its changes, count along the chain named. No constants are given. Whether binding was seen depends on the method and setting. Some results given as binding are weak or reduced against the parent protein; the word gives no strength. Values belong to the binder of their own block, whether it stands above or below them.

Chains of the proteins cited; added tags and fusions are not shown.
UniProt Q9NZQ7: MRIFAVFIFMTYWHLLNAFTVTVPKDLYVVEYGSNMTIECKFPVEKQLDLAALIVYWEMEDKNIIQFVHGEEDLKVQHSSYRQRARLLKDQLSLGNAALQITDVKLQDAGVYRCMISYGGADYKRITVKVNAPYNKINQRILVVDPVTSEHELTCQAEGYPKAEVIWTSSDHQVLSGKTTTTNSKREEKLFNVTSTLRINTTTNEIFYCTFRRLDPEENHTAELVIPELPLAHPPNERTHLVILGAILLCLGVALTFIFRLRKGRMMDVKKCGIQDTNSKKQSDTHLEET

Experiments:
Assay in all cases: ELISA, specificity panel of human B7 family proteins, antibody titrated
B7-H4 (human) = biological target: T1, B7-H4 (human) (UniProt Q7Z7D3)
T1 sequence (single chain, looked up): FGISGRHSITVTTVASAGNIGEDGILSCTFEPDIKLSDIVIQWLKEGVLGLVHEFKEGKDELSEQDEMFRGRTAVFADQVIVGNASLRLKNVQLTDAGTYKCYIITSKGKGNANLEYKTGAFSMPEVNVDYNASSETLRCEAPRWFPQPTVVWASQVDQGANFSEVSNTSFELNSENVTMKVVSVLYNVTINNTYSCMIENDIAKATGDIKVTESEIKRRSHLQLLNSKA

B7-H6 (human) = biological target: T2, B7-H6 (human) (UniProt Q68D85)
T2 sequence (single chain, looked up): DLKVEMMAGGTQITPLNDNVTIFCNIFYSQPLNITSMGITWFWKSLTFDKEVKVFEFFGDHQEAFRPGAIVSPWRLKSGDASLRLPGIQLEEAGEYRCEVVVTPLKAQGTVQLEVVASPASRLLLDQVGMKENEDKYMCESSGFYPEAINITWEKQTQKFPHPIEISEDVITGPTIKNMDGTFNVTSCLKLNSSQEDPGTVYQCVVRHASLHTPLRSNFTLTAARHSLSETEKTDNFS

[1] = biological target: T3, Recombinant human B7-H3 (human) (UniProt Q5ZPR3)
T3 sequence: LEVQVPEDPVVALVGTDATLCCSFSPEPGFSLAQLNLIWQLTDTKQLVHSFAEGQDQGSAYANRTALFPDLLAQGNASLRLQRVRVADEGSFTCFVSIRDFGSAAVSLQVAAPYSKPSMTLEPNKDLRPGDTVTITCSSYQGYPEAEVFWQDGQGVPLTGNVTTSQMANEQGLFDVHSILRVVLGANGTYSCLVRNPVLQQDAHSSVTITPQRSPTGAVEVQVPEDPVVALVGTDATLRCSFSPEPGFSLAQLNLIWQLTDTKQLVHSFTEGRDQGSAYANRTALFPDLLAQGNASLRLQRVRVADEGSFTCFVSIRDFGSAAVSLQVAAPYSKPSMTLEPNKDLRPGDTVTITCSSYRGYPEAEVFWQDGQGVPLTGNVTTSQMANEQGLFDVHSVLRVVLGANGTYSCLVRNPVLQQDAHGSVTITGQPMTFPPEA

B7-1 = biological target: B7-1
B7-H5 = biological target: T4, B7-H5
T4 sequence: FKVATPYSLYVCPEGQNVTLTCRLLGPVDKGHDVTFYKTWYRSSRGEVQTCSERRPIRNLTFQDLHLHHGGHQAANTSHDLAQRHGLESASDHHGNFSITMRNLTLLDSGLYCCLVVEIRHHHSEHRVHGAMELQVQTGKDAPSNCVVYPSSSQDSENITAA

B7-H2 (human) = biological target: T5, B7-H2 (human) (UniProt O75144)
T5 sequence (single chain, looked up): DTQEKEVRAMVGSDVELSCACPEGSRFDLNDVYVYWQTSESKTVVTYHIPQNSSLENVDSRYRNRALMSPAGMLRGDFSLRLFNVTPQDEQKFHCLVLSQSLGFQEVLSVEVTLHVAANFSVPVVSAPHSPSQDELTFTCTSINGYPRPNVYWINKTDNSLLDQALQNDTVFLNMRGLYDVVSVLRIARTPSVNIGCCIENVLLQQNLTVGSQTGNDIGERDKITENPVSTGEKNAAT

PD-L1 (human) = PD-L1 (human) (UniProt Q9NZQ7)
B7-H7 = biological target: T6, B7-H7
T6 sequence: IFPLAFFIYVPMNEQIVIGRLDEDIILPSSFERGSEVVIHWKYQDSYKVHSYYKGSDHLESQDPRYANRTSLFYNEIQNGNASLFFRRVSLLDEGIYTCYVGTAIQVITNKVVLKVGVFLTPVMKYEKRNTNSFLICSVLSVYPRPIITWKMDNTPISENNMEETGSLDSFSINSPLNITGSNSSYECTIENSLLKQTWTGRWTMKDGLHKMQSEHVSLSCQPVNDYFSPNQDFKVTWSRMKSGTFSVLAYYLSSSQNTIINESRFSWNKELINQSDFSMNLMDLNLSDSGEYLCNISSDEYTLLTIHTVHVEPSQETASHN

PD-L2 (human) = biological target: T7, PD-L2 (human) (UniProt Q9BQ51)
T7 sequence (single chain, looked up): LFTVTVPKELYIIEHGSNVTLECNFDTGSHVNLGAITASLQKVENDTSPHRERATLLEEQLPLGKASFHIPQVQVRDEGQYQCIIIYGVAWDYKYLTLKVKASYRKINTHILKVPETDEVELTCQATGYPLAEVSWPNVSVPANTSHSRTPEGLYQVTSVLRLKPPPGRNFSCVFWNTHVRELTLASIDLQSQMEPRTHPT

B1: SCT-Da148 (antibody, V domains shown)
VH: EVQLQQSGAELVKPGASVKLSCTASGVNIKDTYIHWVKQRPEQGLEWIGRIDPANGNRKYDPKFQGKATITADSSSNTAYLQLSSLTSEDTAVYYCARDGYYAPGYWGQGTTLTVSS
VL: DIVMTQSQKFMSTSVGDRVSVTCKASQNVGTDVAWYQQKPGQSPKLLIYSASYRFSGVPDRFTGSGSGTDFSLAISNVQSEDLAEYFCQQYNSYPYTFGGGAKLEIK
binding (B7-H4 (human)): no binding (tested: about 67 nM)
binding (B7-H6 (human)): no binding (tested: about 67 nM)
binding [1]: binds
binding (B7-1): no binding (tested: about 67 nM)
binding (B7-H5): no binding (tested: about 67 nM)
binding (B7-H2 (human)): no binding (tested: about 67 nM)
binding (PD-L1 (human)): no binding (tested: about 67 nM)
binding (B7-H7): no binding (tested: about 67 nM)
binding (PD-L2 (human)): no binding (tested: about 67 nM)

B2: SCT-Da192 (antibody, V domains shown)
VH: EVQLQQSGPELVKPGASVKISCKTSGYTFTEYTMHWVKQSHGKSLEWIGVINPNNGGTTYNQKFKGKATLTVDKSSSTAYMELRSLTSEDSAVYYCARPHSLLRLRREFDYWGQGTTLTVSS
VL: QIVLTQSPALMSASPGEKVTMTCSASSSVSYMYWYQQKPRSSPKPWIYLTSNLASGVPARFSGSGSGTSYSLTISSMEAEDAATYYCQQWSSNPLTFGAGTKLELK
binding [1]: binds

B3: SCT-Da250 (antibody, V domains shown)
VH: QGQMQQSGAELVKPGASVRLSCKTSGFTFSSFYISWLKQKPGQSLEWIAWIYAGPGYTSYNQKFTGKAQLTVDTSSSTAYMQFSSLTTEDSAIYYCARHVGRQRGYFDVWGAGTTVTVSS
VL: DIVMTQSHKFMSTSVGDRVSITCKASQDVSTAVAWYQQKPGQSPKLLIYSASYRYTGVPDHFTVSGSGTDFTFTISSVQAEDLAVYYCQQHYSTPWTFGGGTKLEIK
binding [1]: binds

Further lines, results first:

binding [1]: binds
B4: SCT-Da333 (antibody, V domains shown)
VH: QVQLQQSGPELVRPGVSVKISCKGSGYTFTDYAVHWVKQSHAKSLEWIGVINTYSGNTYYNLHFKGKATMTVDKSSSTAYMELARLTSEDSAIYYCARRRGSHRDAYFDYWGQGTTLTVSS
VL: B3 VL with K24R, H61R

binding (B7-H4 (human)): no binding (tested: about 67 nM)
binding (B7-H6 (human)): no binding (tested: about 67 nM)
binding [1]: binds
binding (B7-1): no binding (tested: about 67 nM)
binding (B7-H5): no binding (tested: about 67 nM)
binding (B7-H2 (human)): no binding (tested: about 67 nM)
binding (PD-L1 (human)): no binding (tested: about 67 nM)
binding (B7-H7): no binding (tested: about 67 nM)
binding (PD-L2 (human)): no binding (tested: about 67 nM)
B5: SCT-Da182 (antibody, V domains shown)
VH: EVQLQQSGPELVKPGASMKISCKVSGFSFTGYTMNWVKQSHGKNLEWIGLINTYNGGTFYNQKFKAKATLTVDKSSSTAHMELLSLTSEDSAVYYCARSPGRYSMDYWGQGTSVTVSS
VL: DIVLTQSPASLAVSLGQRATISCKASQSVDYNGYSYLNWYQQKPGQPPKLLIYPASNLESGIPARFSGSGSGTDFTLNIHPVEEEDAATYYCQQSKEDPYTFGGGTKLEIK
